Results deposited as PubChem BioAssay AID1508597 (Cure First, 2020).

Aim: 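Knock-downs altering ovarian cancer cell survival with or without PARP inhibitor rucaparib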 (primary screen)
System: human ovarian carcinoma lines grown from tumours: OCI-P5x (papillary serous) and OCI-C5x (clear cell)
Reagent: siRNA pool against human genes, 1.25 pmol siRNA per well
Duration: 72 h or 96 h, depending on the cell culture
Challenge: rucaparib 20 µM (about IC30) or vehicle, present until read-out
Detection: 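ATP luminescence measured at 72 or 96 h according to the culture, then normalised and expressed as percent viability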
Direction: viability, normalised: higher = more viable cells remaining
Call rule: 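a well counts as a hit if its normalised viability is under 80 percent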
Meaning of the calls: active = viability under 80%; inactive = viability 80% or more
The deposit covers about 2,100 reagents; shown is an unselected part. 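Calls flag viability under 80% in either arm, not effects specific to rucaparib; the reference for percent is not stated.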 No sequences are given here. The record does not give: the 100% reference.

| Target gene | rucaparib or vehicle | cell line | technical replicate | viability, normalised (%) | call |
| --- | --- | --- | --- | --- | --- |
| WWTR1 | Rucaparib | OCI-C5x (clear cell) | 1 | 45 | active |
| WWTR1 | Rucaparib | OCI-C5x (clear cell) | 2 | 43.3 | active |
| WWTR1 | Rucaparib | OCI-C5x (clear cell) | 3 | 60.8 | active |
| WWTR1 | Rucaparib | OCI-P5x (serous) | 1 | 47.2 | active |
| WWTR1 | Rucaparib | OCI-P5x (serous) | 2 | 62.5 | active |
| WWTR1 | Rucaparib | OCI-P5x (serous) | 3 | 72.3 | active |
| WWTR1 | Vehicle | OCI-C5x (clear cell) | 1 | 41.8 | active |
| WWTR1 | Vehicle | OCI-C5x (clear cell) | 2 | 55.8 | active |
| WWTR1 | Vehicle | OCI-C5x (clear cell) | 3 | 59.5 | active |
| WWTR1 | Vehicle | OCI-P5x (serous) | 1 | 50.6 | active |
| WWTR1 | Vehicle | OCI-P5x (serous) | 2 | 82.8 | inactive |
| WWTR1 | Vehicle | OCI-P5x (serous) | 3 | 78.1 | active |
| MAP3K7 | Rucaparib | OCI-C5x (clear cell) | 1 | 78.3 | active |
| MAP3K7 | Rucaparib | OCI-C5x (clear cell) | 2 | 59.4 | active |
| MAP3K7 | Rucaparib | OCI-C5x (clear cell) | 3 | 51.8 | active |
| MAP3K7 | Rucaparib | OCI-P5x (serous) | 1 | 77 | active |
| MAP3K7 | Rucaparib | OCI-P5x (serous) | 2 | 61.1 | active |
| MAP3K7 | Rucaparib | OCI-P5x (serous) | 3 | 72.7 | active |
| MAP3K7 | Vehicle | OCI-C5x (clear cell) | 1 | 50.4 | active |
| MAP3K7 | Vehicle | OCI-C5x (clear cell) | 2 | 76.6 | active |
| MAP3K7 | Vehicle | OCI-C5x (clear cell) | 3 | 73.5 | active |
| MAP3K7 | Vehicle | OCI-P5x (serous) | 1 | 89.6 | inactive |
| MAP3K7 | Vehicle | OCI-P5x (serous) | 2 | 82.7 | inactive |
| MAP3K7 | Vehicle | OCI-P5x (serous) | 3 | 66.6 | active |
| ROS1 | Rucaparib | OCI-C5x (clear cell) | 1 | 52.2 | active |
| ROS1 | Rucaparib | OCI-C5x (clear cell) | 2 | 68.5 | active |
| ROS1 | Rucaparib | OCI-C5x (clear cell) | 3 | 55.2 | active |
| ROS1 | Rucaparib | OCI-P5x (serous) | 1 | 81.7 | inactive |
| ROS1 | Rucaparib | OCI-P5x (serous) | 2 | 101 | inactive |
| ROS1 | Rucaparib | OCI-P5x (serous) | 3 | 55.5 | active |
| ROS1 | Vehicle | OCI-C5x (clear cell) | 1 | 69 | active |
| ROS1 | Vehicle | OCI-C5x (clear cell) | 2 | 52.5 | active |
| ROS1 | Vehicle | OCI-C5x (clear cell) | 3 | 47.9 | active |
| ROS1 | Vehicle | OCI-P5x (serous) | 1 | 65.6 | active |
| ROS1 | Vehicle | OCI-P5x (serous) | 2 | 72.3 | active |
| ROS1 | Vehicle | OCI-P5x (serous) | 3 | 74.5 | active |
| PIK3CD | Rucaparib | OCI-C5x (clear cell) | 1 | 41.9 | active |
| PIK3CD | Rucaparib | OCI-C5x (clear cell) | 2 | 47.4 | active |
| PIK3CD | Rucaparib | OCI-C5x (clear cell) | 3 | 44 | active |
| PIK3CD | Rucaparib | OCI-P5x (serous) | 1 | 63.1 | active |
| PIK3CD | Rucaparib | OCI-P5x (serous) | 2 | 51.9 | active |
| PIK3CD | Rucaparib | OCI-P5x (serous) | 3 | 56.5 | active |
| PIK3CD | Vehicle | OCI-C5x (clear cell) | 1 | 110 | inactive |
| PIK3CD | Vehicle | OCI-C5x (clear cell) | 2 | 55 | active |
| PIK3CD | Vehicle | OCI-C5x (clear cell) | 3 | 47.1 | active |
| PIK3CD | Vehicle | OCI-P5x (serous) | 1 | 82.8 | inactive |
| PIK3CD | Vehicle | OCI-P5x (serous) | 2 | 71.4 | active |
| PIK3CD | Vehicle | OCI-P5x (serous) | 3 | 71.2 | active |

Copied from above for reference:
| Target gene | rucaparib or vehicle | cell line | technical replicate | viability, normalised (%) | call |
| --- | --- | --- | --- | --- | --- |
| WWTR1 | Vehicle | OCI-P5x (serous) | 1 | 50.6 | active |
| WWTR1 | Vehicle | OCI-P5x (serous) | 2 | 82.8 | inactive |
